Measurements reported in patent US9591855B2, “Diindol-3-ylmethanes as potent non-toxic antifouling compounds” (Hong Kong University of Science and Technology, priority 2014, dated 2017).
At least one structure is not confirmed: it was looked up by name or label, or the drawing left a doubt.

Test system: Balanus amphitrite cypris larvae
Conditions: in vivo
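Further: larvae held in 24-well plates with compound in seawater, dark, 48 h, settled larvae (attached plus metamorphosed) and dead or missing larvae counted microscopically as percent of total per well.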

## c1ccc2c(C(c3c[nH]c4ccccc34)c3c[nH]c4ccccc34)c[nH]c2c1 [Compound 4, tri(1H-indol-3-yl)methane]
  antifouling activity against B. amphitrite larval settlement (in words): higher antifouling activity than indole but lower activity than DIM
